Measurements reported in patent US20110294982A1 (Ablynx, published 2011).
Residue numbers refer to the chain shown, from its start. No constants are given. Whether binding was seen depends on the method and setting. Some results given as binding are weak or reduced against the parent protein; the word gives no strength. Values belong to the binder of their own block, whether it stands above or below them.

Amino acid sequences for entries named in this document (tags omitted).
UniProt P05556: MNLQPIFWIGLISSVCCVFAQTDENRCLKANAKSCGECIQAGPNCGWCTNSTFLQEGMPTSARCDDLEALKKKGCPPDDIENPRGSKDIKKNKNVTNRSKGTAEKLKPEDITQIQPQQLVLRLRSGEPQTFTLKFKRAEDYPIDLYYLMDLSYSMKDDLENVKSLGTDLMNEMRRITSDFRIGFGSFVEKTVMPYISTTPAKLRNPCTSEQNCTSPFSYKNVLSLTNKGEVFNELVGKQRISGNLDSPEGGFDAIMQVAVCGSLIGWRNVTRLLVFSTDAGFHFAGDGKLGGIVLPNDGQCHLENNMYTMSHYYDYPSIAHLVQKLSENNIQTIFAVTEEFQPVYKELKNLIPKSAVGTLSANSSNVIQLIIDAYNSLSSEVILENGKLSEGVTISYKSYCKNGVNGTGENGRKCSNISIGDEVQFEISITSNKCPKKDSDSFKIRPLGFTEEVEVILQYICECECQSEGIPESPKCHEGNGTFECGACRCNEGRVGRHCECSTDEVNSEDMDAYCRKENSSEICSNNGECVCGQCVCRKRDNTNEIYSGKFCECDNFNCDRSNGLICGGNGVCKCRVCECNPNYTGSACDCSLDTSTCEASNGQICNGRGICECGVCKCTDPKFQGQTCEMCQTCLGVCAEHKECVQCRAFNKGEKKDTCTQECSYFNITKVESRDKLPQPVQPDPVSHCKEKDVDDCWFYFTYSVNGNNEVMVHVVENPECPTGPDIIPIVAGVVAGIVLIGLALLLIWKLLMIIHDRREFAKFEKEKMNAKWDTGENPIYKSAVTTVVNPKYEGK

Legend:
Human alphaL (human) = biological target: T1, Human alphaL (human) (UniProt P20701); assay: specificity ELISA on coated integrins, periplasmic extract
T1 sequence (looked up): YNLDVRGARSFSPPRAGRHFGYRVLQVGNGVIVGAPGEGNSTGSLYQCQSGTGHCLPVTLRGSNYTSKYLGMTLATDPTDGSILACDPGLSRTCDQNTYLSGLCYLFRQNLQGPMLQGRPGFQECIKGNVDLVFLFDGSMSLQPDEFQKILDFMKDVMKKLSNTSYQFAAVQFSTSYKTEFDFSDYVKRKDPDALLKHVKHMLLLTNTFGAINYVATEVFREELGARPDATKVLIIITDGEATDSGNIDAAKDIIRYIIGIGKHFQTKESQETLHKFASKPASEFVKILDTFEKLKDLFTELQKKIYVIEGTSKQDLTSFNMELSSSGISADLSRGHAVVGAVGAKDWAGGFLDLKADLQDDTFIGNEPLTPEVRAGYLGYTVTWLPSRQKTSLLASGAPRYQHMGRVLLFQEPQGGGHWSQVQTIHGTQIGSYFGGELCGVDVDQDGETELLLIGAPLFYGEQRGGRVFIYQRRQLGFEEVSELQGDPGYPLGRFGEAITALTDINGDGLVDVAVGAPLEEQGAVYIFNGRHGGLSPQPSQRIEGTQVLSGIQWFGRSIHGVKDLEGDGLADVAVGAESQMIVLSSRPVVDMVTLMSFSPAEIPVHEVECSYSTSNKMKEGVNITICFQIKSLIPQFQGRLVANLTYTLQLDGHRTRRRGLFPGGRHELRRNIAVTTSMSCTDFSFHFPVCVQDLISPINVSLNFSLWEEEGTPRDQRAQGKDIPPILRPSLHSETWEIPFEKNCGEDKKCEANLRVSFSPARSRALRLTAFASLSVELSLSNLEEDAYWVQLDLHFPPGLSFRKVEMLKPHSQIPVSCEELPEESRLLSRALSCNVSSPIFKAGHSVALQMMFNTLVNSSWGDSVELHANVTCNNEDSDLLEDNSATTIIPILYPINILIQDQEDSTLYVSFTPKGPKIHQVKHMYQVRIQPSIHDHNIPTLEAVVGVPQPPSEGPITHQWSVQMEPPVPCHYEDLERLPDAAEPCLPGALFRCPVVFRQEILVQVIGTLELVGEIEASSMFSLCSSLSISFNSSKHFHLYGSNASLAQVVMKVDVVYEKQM

Human beta1 (human) = Human beta1 (human) (UniProt P05556); assay: as above

B5: 235-A12 (VHH)
VHH: EVQLVESGGGLVQSGGSLRLSCAASGSIVGISDMRWYRQAPGNQRELAASISRGGSTNYGDFVKGRFTISRDNAKNTVSLQMSSLEPEDTAVYYCNAAVAAGTVGAYTLRNYWGQGTQVTVSS
binding (Human alphaL (human)): binds

B7: 235-B7 (VHH)
VHH: EVQLVESGGGLVRAGGSLRLSCTASGNILNIASMGWYRQAPGKQRTWVARIRSDGTTSYQDAVKGRFTIAKDNAKNAGYLQMDNLKPEDTAVYYCNAAGSTIDGGFSSWGPGTQVTVSS
binding (Human alphaL (human)): binds

B9: 141-A10 (VHH)
VHH: EVQLVESGGGLVQAGGSLRLSCAASGRTISRFTMGWFRQGPGKERDFVAAISWGGGRTNYEDSVKGRFTISRDNAQNTVYLQMNSLKPEDTAVYYCAABSRGPYNSNWHQSSVSYDYWGQGTQVTVSS
binding (Human beta1 (human)): binds

B10: 142-E11 (VHH)
VHH: B9 VHH with G40A, F68S, S100T, H109A
binding (Human beta1 (human)): binds

B11: 142-D8 (VHH)
VHH: B9 VHH with G40A, N59K, K65T
binding (Human beta1 (human)): binds

B12: 141-C10 (VHH)
VHH: B9 VHH with G40A, S100T, H109A, Y117G
binding (Human beta1 (human)): binds

B13: 141-C11 (VHH)
VHH: B9 VHH with G16D, G40A, B99D, S100T, H109A, Y117G
binding (Human beta1 (human)): binds

B14: 142-C9 (VHH)
VHH: B9 VHH with G40A, N59K, K65T, N84D
binding (Human beta1 (human)): binds

B15: 142-B10 (VHH)
VHH: B9 VHH with Q13P, T28A, G40A, N59D, Q76R, S100T, H109A, D116N
binding (Human beta1 (human)): binds

B17: 141-F10 (VHH)
VHH: B9 VHH with G40A
binding (Human beta1 (human)): binds

B18: 142-C7 (VHH)
VHH: B9 VHH with G40A, S100T, Y117A
binding (Human beta1 (human)): binds

B19: 141-A11 (VHH)
VHH: B9 VHH with G40A, B99D, S100T, H109A, Y117T
binding (Human beta1 (human)): binds

B20: 141-E10 (VHH)
VHH: B9 VHH with G40A, D46E, S100T, H109A
binding (Human beta1 (human)): binds

B21: 138-B10 (VHH)
VHH: EVQLVESGGGLVQAGGSLRLSCAASGFTADDYAIGWFRQAPGKEREGVSCISSSDGSTFYADSVKGRFTISSDNAKNTVYLQMNSLKPEDTAVYYCAADPRFEPTLLCTDYDYEDYWGQGTQVTVSS
binding (Human alphaL (human)): binds

B22: 138-G2 (VHH)
VHH: EVQLVESGGGLVQPGGSLRLSCAASGFTLDYYNIGWFRQAPGEEREGVSCVSSSGGSTYYADSVKGRFTISRDNAKNTVYLQMNSLKPEDTAVYYCATLNLFTTCDGPWGYEYDYYGQGTQVTVSS
binding (Human alphaL (human)): binds

B23: 138-E4 (VHH)
VHH: B22 VHH with Y31S
binding (Human alphaL (human)): binds

B24: 138-D2 (VHH)
VHH: B22 VHH with E43K, S53D
binding (Human alphaL (human)): binds

B25: 138-H5 (VHH)
VHH: B22 VHH with E43K
binding (Human alphaL (human)): binds

B27: 138-D7 (VHH)
VHH: EVQLVESGGGLVQAGGSLRLSCAASGFTFDDYAIGWFRQAPGKEREGVSCISSSDGYTYYADSVKDRFTISSDDAKNTVYLQMNSLKPEDTAVYYCAATPRRFGWCSDYBEYDYWGQGTQVTVSS
binding (Human alphaL (human)): binds

B28: 138-H7 (VHH)
VHH: B27 VHH with T58S, Y59F, D62N, D66G, D74N, B110D
binding (Human alphaL (human)): binds

B33: 138-G4 (VHH)
VHH: EVQLVESGGGLVQAGGSLRLSCAASGFTFDDYAIGWFRQAPGKEREGVSCISSSHGSTFYADSVKDRFTISSDNAKNTVYLQMNSLKPEDTAVYYCAAALGGGSSWCTTYEYDAWGQGTQVTVSS
binding (Human alphaL (human)): binds

More lines, now with the values ahead:

binding (Human alphaL (human)): binds
B1: 248-D7 (VHH)
VHH: EVQLVESGGGLVQPGGSLRLSCAASGFAFSSYAMSWVRQAPGKGVEWVSAINSGGGSTSYLNSVKGRFTISRDDAKNTLYLQMNSLKPEDTAVYYCAKPIYYSPNTYPPTSRYDYRGQGTQVTVSS

binding (Human alphaL (human)): binds
B2: 248-E8 (VHH)
VHH: B1 VHH with A33V, S35T, V45L, A50S, N52T, S57Y, L61V, I100T, Y101F, T106M

binding (Human alphaL (human)): binds
B3: 236-B4 (VHH)
VHH: B1 VHH with E1K, A33V, S35T, V45L, A50S, N52T, S57Y, I100T, Y101F, T106M

binding (Human alphaL (human)): binds
B4: 248-B7 (VHH)
VHH: KVQLVESGGGLVQAGGSLRLTCAASGSILSVSTMTWYRQVLGTQRELVASITRSGGSNYADPVKGRFTIARDNAKNTMYLQMNSLKPEDTAIYYCNAVIASNSGRSYDLRNYWGQGTQVTVSS

binding (Human alphaL (human)): binds
B6: 248-F7 (VHH)
VHH: EVQLVESGGGLVQAGGSLRLSCAASGSGFNIVNAGWYRQGPEKQRELVARITSGGTTNYAESVKGRFTISRDNAKNTVYLQMNSLKPEDTAVYSCNARVIAPGRLDDIWGQGTQVTVSS

binding (Human alphaL (human)): binds
B8: 248-F2 (VHH)
VHH: B7 VHH with P41L

binding (Human beta1 (human)): binds
B16: 242-E8 (VHH)
VHH: B9 VHH with G40A, B99D, S100T, H109A, Y117G

binding (Human alphaL (human)): binds
B26: 248-A1 (VHH)
VHH: EVQLVESGGGLVQPGGSLRLSCTASGSVFSIGNMGWYRQAPGKQRELVATITQAGSPNYSQSAKGRFTISRDVPKNTVSLQMNSLKPEDTAVYYCNGNIVTYDRGRTTVKNYWGQGTQVTVSS

binding (Human alphaL (human)): binds
B29: 248-C8 (VHH)
VHH: EVQLVESGGGLVQAGGSLRLSCAASGFTLDAYAIGWFRQAPGKEREGVSCISSSDGSTFYADSVKDRFTISSDNAKNTVYLQMNSLKPEDTAVYYCAADRRGKSEMYCTDYSYSDAWGQGTQVTVSS

binding (Human alphaL (human)): binds
B30: 235-F3 (VHH)
VHH: EVQLVESGGGLVQAGGSLTLSCALSGGSSSIANSAWYRQAPGNQRELVARITSNDNTYYADSVKGRLTISKDNAKNTASLQMNSLKPEDTAVYYCFVRTVGTGSLFDYWGQGTQVTVSS

binding (Human alphaL (human)): binds
B31: 248-G2 (VHH)
VHH: B30 VHH with L4P, L67F

binding (Human alphaL (human)): binds
B32: 248-F1 (VHH)
VHH: B30 VHH with L67F
